From doi:10.1101/2024.07.11.603088
Changes are numbered by the printed parent chain. These are yes or no findings as the source states them, for the method shown. Binding seen in cells or lysates may run through a third protein. Some binding calls cover weakened binding; strength is not graded here. For part of these data: Where a sequence is shown, tags or fusion partners need not be part of it.

Chains of the proteins cited; added tags and fusions are not shown.
UniProt O08900: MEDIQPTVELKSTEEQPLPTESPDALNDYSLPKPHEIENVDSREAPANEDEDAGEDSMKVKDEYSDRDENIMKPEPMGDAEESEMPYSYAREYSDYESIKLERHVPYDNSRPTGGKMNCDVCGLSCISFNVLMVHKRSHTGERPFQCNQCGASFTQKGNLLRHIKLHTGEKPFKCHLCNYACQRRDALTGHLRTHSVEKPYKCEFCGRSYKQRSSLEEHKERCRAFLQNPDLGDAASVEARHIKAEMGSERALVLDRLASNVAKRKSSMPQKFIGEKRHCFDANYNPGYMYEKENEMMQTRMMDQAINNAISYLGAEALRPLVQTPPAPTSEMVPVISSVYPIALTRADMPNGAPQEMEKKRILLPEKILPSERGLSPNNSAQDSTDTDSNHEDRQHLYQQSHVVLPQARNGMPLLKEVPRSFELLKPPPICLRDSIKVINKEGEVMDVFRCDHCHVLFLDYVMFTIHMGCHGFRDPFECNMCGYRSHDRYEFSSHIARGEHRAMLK
UniProt Q03267: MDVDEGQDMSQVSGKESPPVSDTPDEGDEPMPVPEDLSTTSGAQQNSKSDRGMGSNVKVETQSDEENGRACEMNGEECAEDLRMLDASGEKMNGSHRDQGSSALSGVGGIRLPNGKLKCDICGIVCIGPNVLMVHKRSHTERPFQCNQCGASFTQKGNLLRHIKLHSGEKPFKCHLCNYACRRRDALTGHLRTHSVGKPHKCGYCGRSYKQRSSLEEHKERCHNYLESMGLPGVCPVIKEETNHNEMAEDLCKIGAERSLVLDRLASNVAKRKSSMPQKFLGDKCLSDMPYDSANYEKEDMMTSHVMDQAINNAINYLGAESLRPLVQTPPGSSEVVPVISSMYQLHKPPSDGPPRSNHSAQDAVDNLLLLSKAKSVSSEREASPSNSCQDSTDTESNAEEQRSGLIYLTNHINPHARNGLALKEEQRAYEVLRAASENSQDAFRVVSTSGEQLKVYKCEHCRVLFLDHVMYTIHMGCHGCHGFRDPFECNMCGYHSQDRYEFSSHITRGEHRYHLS
UniProt Q13422: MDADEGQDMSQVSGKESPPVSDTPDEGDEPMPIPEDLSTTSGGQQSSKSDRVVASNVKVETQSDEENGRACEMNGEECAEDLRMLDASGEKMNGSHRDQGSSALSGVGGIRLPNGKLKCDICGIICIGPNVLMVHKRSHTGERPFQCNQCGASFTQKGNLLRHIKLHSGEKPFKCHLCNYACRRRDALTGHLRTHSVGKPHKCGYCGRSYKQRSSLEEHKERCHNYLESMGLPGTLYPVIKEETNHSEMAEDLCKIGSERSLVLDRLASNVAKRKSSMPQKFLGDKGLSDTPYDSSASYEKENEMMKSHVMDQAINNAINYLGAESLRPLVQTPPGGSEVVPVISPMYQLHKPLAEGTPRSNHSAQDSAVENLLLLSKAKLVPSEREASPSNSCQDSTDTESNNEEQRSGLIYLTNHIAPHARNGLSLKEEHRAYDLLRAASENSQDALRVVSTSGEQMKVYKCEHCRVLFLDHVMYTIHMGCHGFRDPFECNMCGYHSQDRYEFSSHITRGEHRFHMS
UniProt O09106: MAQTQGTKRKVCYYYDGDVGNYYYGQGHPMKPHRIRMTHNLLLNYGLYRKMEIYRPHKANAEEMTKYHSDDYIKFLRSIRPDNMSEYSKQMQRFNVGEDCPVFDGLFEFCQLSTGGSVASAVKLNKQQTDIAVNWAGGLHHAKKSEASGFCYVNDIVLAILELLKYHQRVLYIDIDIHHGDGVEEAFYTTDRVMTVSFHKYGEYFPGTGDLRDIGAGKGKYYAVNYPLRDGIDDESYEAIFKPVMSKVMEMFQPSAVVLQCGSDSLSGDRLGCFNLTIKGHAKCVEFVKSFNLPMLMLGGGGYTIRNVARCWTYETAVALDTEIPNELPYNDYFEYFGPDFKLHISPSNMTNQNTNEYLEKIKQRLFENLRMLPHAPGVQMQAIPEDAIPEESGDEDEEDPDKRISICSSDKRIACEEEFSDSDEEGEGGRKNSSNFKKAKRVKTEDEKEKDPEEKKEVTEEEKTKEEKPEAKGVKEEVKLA
UniProt Q9UKT9: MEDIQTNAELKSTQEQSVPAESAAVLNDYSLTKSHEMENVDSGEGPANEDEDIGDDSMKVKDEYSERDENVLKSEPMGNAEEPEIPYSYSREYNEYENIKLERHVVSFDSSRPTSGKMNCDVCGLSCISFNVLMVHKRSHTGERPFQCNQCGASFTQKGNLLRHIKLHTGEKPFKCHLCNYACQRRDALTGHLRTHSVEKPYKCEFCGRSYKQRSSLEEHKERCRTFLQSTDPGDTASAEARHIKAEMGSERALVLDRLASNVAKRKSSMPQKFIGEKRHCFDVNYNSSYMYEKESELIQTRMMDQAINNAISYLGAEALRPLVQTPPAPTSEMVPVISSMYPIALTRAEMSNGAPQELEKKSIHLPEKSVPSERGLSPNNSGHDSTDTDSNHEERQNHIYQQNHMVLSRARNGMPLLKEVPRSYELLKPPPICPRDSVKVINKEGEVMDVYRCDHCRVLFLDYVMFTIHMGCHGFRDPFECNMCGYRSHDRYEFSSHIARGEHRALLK

How the values were obtained:
[1] = molecular target: T1, YTHDF2 (human, endogenous) (human (endogenous in human CD8 T cells and Jurkat)) (UniProt Q9Y5A9); assay: proximity ligation
T1 sequence: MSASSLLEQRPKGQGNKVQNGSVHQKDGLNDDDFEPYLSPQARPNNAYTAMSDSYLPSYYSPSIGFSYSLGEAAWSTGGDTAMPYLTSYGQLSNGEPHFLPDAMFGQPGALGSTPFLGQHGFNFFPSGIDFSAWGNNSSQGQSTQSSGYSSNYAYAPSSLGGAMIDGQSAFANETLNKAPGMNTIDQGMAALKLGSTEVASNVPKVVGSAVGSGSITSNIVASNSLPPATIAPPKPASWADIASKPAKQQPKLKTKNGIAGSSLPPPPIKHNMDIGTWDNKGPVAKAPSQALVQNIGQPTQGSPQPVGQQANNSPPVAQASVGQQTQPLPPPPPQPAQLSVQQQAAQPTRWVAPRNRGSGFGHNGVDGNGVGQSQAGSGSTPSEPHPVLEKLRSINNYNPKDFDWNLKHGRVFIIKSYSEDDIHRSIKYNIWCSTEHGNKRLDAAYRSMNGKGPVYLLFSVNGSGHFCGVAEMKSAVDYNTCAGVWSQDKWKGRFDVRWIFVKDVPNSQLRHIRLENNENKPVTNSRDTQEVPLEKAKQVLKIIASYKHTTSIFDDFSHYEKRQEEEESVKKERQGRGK

[2] = molecular target: Aiolos (IKZF3) (mouse, endogenous in CD8 T cells) (mouse (endogenous in mouse CD8 T cells)) (UniProt O08900); assay: proximity ligation
[3] = molecular target: Ikaros (IKZF1) (mouse, endogenous in CD8 T cells) (mouse (endogenous in mouse CD8 T cells)) (UniProt Q03267); assay: proximity ligation
Flag-tagged WT YTHDF2 = molecular target: T2, Flag-tagged WT YTHDF2 (UniProt Q9Y5A9); assay: proximity ligation
T2 sequence: T1 sequence

[4] = molecular target: T3, YTHDF2 (mouse, endogenous in CD8 T cells) (mouse (endogenous in mouse CD8 T cells)) (UniProt Q91YT7); assay: proximity ligation
T3 sequence: T1 sequence with N202S, N224S

[5] = molecular target: T3, YTHDF2 (mouse, endogenous in CD8 T cells) (mouse (endogenous in mouse CD8 T cells)); assay: co-IP

Row | binding [4] | binding [5] | Substance | binding [1] | other results
1 | – | – | Ikaros (IKZF1) (human, endogenous) (from UniProt Q13422 1-519) | binds | –
2 | – | – | HDAC1 (mouse, endogenous in CD8 T cells) (from UniProt O09106 1-482) (enzyme) | – | binding [2]: binds; binding [3]: binds
3 | – | – | Aiolos (IKZF3) (human, endogenous) (from UniProt Q9UKT9 1-509) | binds | binding (Flag-tagged WT YTHDF2): binds
4 | binds | binds | Ikaros (IKZF1) (mouse, endogenous in CD8 T cells) (from UniProt Q03267 1-517) | – | –
5 | binds | binds | Aiolos (IKZF3) (mouse, endogenous in CD8 T cells) (from UniProt O08900 1-507) | – | –
